From PubChem BioAssay AID1487 (National Center for Advancing Translational Sciences (NCATS), 2009)
The other results are listed elsewhere or left out. These are further read-outs of the screen, such as a control signal, another cell line or another target. No call is given for them. The list favours compounds with an active or inconclusive main result. Words in brackets tell the shape of the fitted curve; partial curves, single points and poor fits give uncertain potencies.

Assay: qHTS Assay for Modulators of Lamin A Splicing
Conditions: HeLa LMNA splicing GFP/RFP minigene ratio, 48 h
Procedure, shortened: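 Read-out is the ratio of GFP to DsRed2 object intensity, acquired by 488 nm laser-scanning cytometry on HeLa lamin A-EGFP minigene reporter cells. Compound incubation 48 hrs at 37 °C in Opti-MEM with 2% FBS; DMSO 0.5% final.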

[1] = measured here: GFP splicing reporter channel
[2] = measured here: RFP viability control channel

Row | SMILES | AC50 [1] | AC50 [2]
1 | COc1ccccc1CCn1c(=O)cnc2cncnc21 | 6.31 µM [falling, full curve] | 6.31 µM [falling, full curve]
2 | COc1ccccc1CC(=O)N1CCN(c2ccc([N+](=O)[O-])cc2)CC1 | – | 0.282 µM [falling, full curve]
3 | Clc1ccc2nc(C3CCN(Cc4nnnn4C4CCCCC4)CC3)[nH]c2c1 | – | 22.4 µM [rising, single point]
4 | COc1ccc(N2C(=O)CC2(C#N)c2ccc(OCc3ccccc3)cc2)cc1 (centres undefined) | 7.94 µM [rising, partial curve] | 28.2 µM [rising, single point]
5 | Cc1[nH]c2ccccc2c1C(=O)C(=O)NCCC1=CCCCC1 | 0.158 µM [falling, full curve, poor fit] | 3.55 µM [falling, single point]
6 | CCOC(=O)N1CCN(c2ncnc3c2[nH]c2ccc(F)cc23)CC1 | 7.08 µM [rising, partial curve, poor fit] | 7.08 µM [rising, full curve]
7 | Cc1ccccc1NCC(=O)N/N=C\c1ccc2c(c1)OCO2 | 35.5 µM [rising, partial curve, poor fit] | 12.6 µM [rising, partial curve]
8 | N#CC(C(=O)NC1CCCCC1)c1nc2ccccc2nc1N1CCN(c2ccccc2F)CC1 (centres undefined) | – | 5.62 µM [rising, single point]
9 | Cc1cc(S(=O)(=O)N2CCN=C2c2ccccc2)c(Cl)cc1Cl | – | 7.08 µM [rising, full curve, poor fit]
10 | O=C(Nc1ccc2ccccc2c1)NC1CCS(=O)(=O)C1 (centres undefined) | – | 0.0224 µM [falling, full curve]
11 | COc1ccc(Oc2ccc(NC(=O)c3ccccc3C)cc2)cc1 | – | 0.00447 µM [falling, full curve, poor fit]
12 | COc1ccccc1/C=C1\SC(=O)N(CCC(=O)NNC(=O)c2ccccc2Cl)C1=O | – | 6.31 µM [rising, single point]
13 | Cc1ccc(Nc2nc(N)c(C#N)c(CC#N)c2C#N)cc1 | 15.8 µM [falling, partial curve, poor fit] | 17.8 µM [falling, partial curve]
14 | COC(=O)c1ccccc1NC1=C/C(=N\S(=O)(=O)c2cccs2)c2ccccc2C1=O | 35.5 µM [falling, single point] | 35.5 µM [falling, single point]
15 | Cc1c(C(=O)NCc2ccc3c(c2)OCO3)oc2ccccc12 | – | 12.6 µM [rising, partial curve, poor fit]
16 | CCOc1ccc(C(c2c(C)[nH][nH]c2=O)c2c(C)[nH][nH]c2=O)cc1OCC | – | 11.2 µM [rising, single point]
17 | Cc1[nH]c2ccccc2c1C(=O)/C=C/c1ccccc1Cl | – | 17.8 µM [rising, partial curve]
18 | CCCCOC(=O)N1CCOCCOCCN(C(=O)OCCCC)CCOCCOCC1 | – | 12.6 µM [rising, single point]
19 | Cc1ccc(-n2nc(-c3ccc(N)cc3)cc2N)cc1 | – | 20 µM [rising, partial curve, poor fit]
20 | COc1ccc(S(=O)(=O)N(CC(=O)Nc2cc(C)on2)Cc2ccccc2)cc1 | – | 15.8 µM [rising, single point]
21 | COc1ccc(OC)c(NC(=O)CSc2n[nH]c(-c3ccccc3Cl)n2)c1 | – | 31.6 µM [rising, single point]
22 | COc1ccc2cc(C(=O)c3ccccc3)c(=O)oc2c1 | 35.5 µM [rising, single point] | –
23 | CCOC(=O)c1c(C)[nH]c(C2=NNC(=Nc3ccc(OCC)cc3)SC2)c1C | 20 µM [rising, single point] | 17.8 µM [rising, partial curve]
24 | c1ccc(-c2cn(-c3ccccc3)c3ncnc(N4CCN(c5ccccc5)CC4)c23)cc1 | 6.31 µM [falling, single point] | –
25 | CC(C)OC(=O)c1cc2c(ccn2C)n1CC(=O)N(Cc1ccccc1)c1ccccc1 | 11.2 µM [rising, partial curve] | 11.2 µM [rising, partial curve]
26 | c1ccc(-c2oc3ncnc(NCCCn4ccnc4)c3c2-c2ccccc2)cc1 | 7.94 µM [rising, partial curve] | 14.1 µM [rising, partial curve]
27 | Clc1ccccc1CNc1ncnc2nc[nH]c12 | 15.8 µM [rising, single point] | 20 µM [rising, single point]

Row | SMILES | AC50 [1] | AC50 [2]
28 | O=C(C1CCN(Cc2ccc(Cl)cc2)CC1)N1CCN(C(c2ccccc2)c2ccccc2)CC1 | 28.2 µM [falling, single point] | –
29 | COc1ccc(OC)c(NC(=O)CSC2=Nc3ccccc3C3=NC(CCC(=O)NCc4ccco4)C(=O)N23)c1 (centres undefined) | 0.355 µM [rising, partial curve, poor fit] | –
30 | O=c1c(-c2cccc(F)c2)nc2cncnc2n1Cc1ccc(F)cc1 | 8.91 µM [falling, partial curve] | 20 µM [falling, partial curve, poor fit]
31 | Cc1cc(C(=O)CSc2n[nH]c(N)n2)c(C)n1-c1ccc2c(c1)OCO2 | – | 15.8 µM [rising, single point]
32 | O=C(N/N=C/c1cc(Cl)ccc1O)C(=O)Nc1ccccc1OC(F)(F)C(F)F | 1.41 µM [rising, partial curve, poor fit] | 14.1 µM [rising, partial curve]
33 | CC(C)=C1C2CCC1C(C(=O)Nc1cc(C)cc(C)c1)C2C(=O)O (centres undefined) | 0.0282 µM [rising, full curve, poor fit] | –
34 | CCOc1ccc(C2=C(C=C(C#N)C#N)C(c3ccccc3)c3ccccc3O2)cc1 (centres undefined) | – | 12.6 µM [rising, partial curve]
35 | O=C(COC(=O)CCCN1C(=O)c2cccc3cccc(c23)C1=O)Nc1cccc(C(F)(F)F)c1 | – | 2 µM [falling, full curve, poor fit]
36 | O=C1Nc2ccc(S(=O)(=O)NCCC3=CCCCC3)c3cccc1c23 | 20 µM [rising, partial curve, poor fit] | 22.4 µM [rising, single point]
37 | Oc1cccc2c(NC(=S)Nc3ccc(SC(F)F)cc3)cccc12 | – | 11.2 µM [rising, partial curve]
38 | CC1SC(=Nc2ccccc2)N(S(=O)(=O)c2ccccc2)C1=O (centres undefined) | – | 12.6 µM [falling, partial curve, poor fit]
39 | CC(=O)N1N=C(c2ccccc2)CC1c1ccccc1[N+](=O)[O-] (centres undefined) | – | 0.141 µM [rising, full curve, poor fit]
40 | O=C(Cn1cc(/C=N/NC(=O)c2ccccc2Br)c2ccccc21)Nc1ccc(F)cc1 | 11.2 µM [rising, partial curve] | 20 µM [rising, single point]
41 | Cc1ccc(S(=O)(=O)N(CC(=O)Nc2ccc(Cl)c([N+](=O)[O-])c2)C2CCCCC2)cc1 | – | 15.8 µM [rising, partial curve]
42 | CCCCn1c(=S)[nH]c2cc(S(=O)(=O)N3CCCCC3)ccc21 | – | 14.1 µM [rising, single point]
43 | Cc1ccc(C(=O)Nc2ccc(-n3c(C)nc4ccccc4c3=O)cc2)cc1[N+](=O)[O-] | – | 35.5 µM [rising, single point]
44 | CCCc1cc(NC(=O)CCl)n(-c2ccccc2)n1 | – | 35.5 µM [falling, single point]
45 | O=C(COC(=O)c1ccc2c(c1[N+](=O)[O-])C(=O)c1ccccc1C2=O)NC1CC1 | 11.2 µM [falling, partial curve, poor fit] | 10 µM [falling, partial curve, poor fit]
46 | COc1ccc(CC2(CO)CCN(S(=O)(=O)c3c(C)nn(C)c3C)CC2)cc1 | 11.2 µM [falling, partial curve] | 1.26 µM [falling, partial curve]
47 | CC(=O)Nc1nc2nc(-c3ccccc3)cc(-c3ccccc3)n2n1 | – | 14.1 µM [rising, partial curve]
48 | Cc1nc(NC(=O)C23CC4CC(CC(C4)C2)C3)sc1Cc1ccc2c(c1)OCO2 | 11.2 µM [rising, single point] | 12.6 µM [rising, partial curve]
49 | COc1ccc(C(=O)CSc2nn3c(=O)c(C(C)(C)C)nnc3s2)cc1 | 15.8 µM [falling, single point] | –
50 | COc1ccc(-c2cc(CS(=O)(=O)c3ccccc3)on2)cc1 | 0.0501 µM [rising, full curve, poor fit] | –
51 | CCOc1cc(S(=O)(=O)n2cc(-c3ccc(F)cc3)c(N)n2)cc(OCC)c1OCC | – | 7.08 µM [rising, single point]
52 | COc1ccc(C2SCCN2S(=O)(=O)c2ccc(NC(C)=O)cc2)cc1 (centres undefined) | – | 22.4 µM [rising, single point]
53 | COc1ccccc1OS(=O)(=O)c1ccc(NC(C)=O)cc1 | 1.12 µM [falling, partial curve, poor fit] | 0.0398 µM [falling, full curve]
54 | Cc1cc(=O)oc2ccc(OCC(=O)N(Cc3ccc(F)cc3)Cc3ccco3)cc12 | 10 µM [rising, partial curve] | 11.2 µM [rising, single point]

Four of these compounds in another layout:
COc1ccc(OC)c(NC(=O)CSC2=Nc3ccccc3C3=NC(CCC(=O)NCc4ccco4)C(=O)N23)c1 (centres undefined)
  AC50 [1]: 0.355 µM [rising, partial curve, poor fit]
O=c1c(-c2cccc(F)c2)nc2cncnc2n1Cc1ccc(F)cc1
  AC50 [1]: 8.91 µM [falling, partial curve]
  AC50 [2]: 20 µM [falling, partial curve, poor fit]
Cc1cc(C(=O)CSc2n[nH]c(N)n2)c(C)n1-c1ccc2c(c1)OCO2
  AC50 [2]: 15.8 µM [rising, single point]
O=C(N/N=C/c1cc(Cl)ccc1O)C(=O)Nc1ccccc1OC(F)(F)C(F)F
  AC50 [1]: 1.41 µM [rising, partial curve, poor fit]
  AC50 [2]: 14.1 µM [rising, partial curve]
